# Results published in publication PMC11446711.
# Amino acid sequences for entries named in this document (tags omitted).
# UniProt Q08775: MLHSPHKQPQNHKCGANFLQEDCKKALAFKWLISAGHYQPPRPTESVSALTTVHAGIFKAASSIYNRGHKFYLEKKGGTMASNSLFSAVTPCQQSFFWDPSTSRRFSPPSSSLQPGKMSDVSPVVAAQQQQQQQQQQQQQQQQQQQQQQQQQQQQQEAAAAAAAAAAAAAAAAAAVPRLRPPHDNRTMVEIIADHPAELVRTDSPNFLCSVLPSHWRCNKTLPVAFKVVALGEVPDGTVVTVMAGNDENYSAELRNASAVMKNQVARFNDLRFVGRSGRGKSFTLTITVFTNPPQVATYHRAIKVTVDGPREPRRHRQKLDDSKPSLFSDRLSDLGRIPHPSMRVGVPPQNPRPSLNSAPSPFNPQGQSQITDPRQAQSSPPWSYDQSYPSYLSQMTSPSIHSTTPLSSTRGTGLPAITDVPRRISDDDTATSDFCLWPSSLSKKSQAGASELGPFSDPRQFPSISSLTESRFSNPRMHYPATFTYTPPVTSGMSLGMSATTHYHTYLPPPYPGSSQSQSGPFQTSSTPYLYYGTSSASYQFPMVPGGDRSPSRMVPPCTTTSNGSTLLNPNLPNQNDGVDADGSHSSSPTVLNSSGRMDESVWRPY
# UniProt Q3UIR3: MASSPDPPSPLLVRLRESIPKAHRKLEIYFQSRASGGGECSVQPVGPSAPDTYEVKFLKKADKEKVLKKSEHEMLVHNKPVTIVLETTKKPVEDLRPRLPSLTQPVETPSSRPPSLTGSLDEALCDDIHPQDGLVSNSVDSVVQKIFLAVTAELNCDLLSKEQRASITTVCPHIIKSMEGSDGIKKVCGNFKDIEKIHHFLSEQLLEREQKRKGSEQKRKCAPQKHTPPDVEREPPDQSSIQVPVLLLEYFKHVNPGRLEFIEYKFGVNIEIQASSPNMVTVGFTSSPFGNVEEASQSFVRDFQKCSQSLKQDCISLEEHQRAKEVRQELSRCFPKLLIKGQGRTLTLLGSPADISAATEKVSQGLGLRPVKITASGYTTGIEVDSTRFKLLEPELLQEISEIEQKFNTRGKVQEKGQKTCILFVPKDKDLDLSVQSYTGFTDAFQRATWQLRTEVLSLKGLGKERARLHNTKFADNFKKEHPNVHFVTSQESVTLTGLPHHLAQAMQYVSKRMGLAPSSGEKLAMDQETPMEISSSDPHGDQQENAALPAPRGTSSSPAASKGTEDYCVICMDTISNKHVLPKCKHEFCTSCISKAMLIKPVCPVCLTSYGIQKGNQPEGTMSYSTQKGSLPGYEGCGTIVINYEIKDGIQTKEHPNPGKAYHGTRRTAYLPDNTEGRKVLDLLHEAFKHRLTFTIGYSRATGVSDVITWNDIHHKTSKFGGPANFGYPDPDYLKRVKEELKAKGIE
# These are yes or no findings as the source states them, for the method shown. In cells and extracts the contact can be indirect. Some results given as binding are weak or reduced against the parent protein; the word gives no strength.
# Legend:
# [1] = target: Flag-Runx2 (RUNX family transcription factor 2) in NIH/3T3 cells (UniProt Q08775); assay: co-IP; NIH/3T3 cells transfected with Flag-Runx2 for 24 h, then 10 ng/mL TGF-β1 for 24 h and 600 mg/L L-carnitine for 15 min; enrichment for Flag by immunoprecipitation; western blot for Runx2 and DTX3L
# [2] = target: Flag-Runx2 (RUNX family transcription factor 2) (UniProt Q08775); assay: proximity ligation; Duolink assay in fixed HEK 293 cells transfected with GFP-DTX3L and Flag-Runx2; anti-Flag rabbit and anti-GFP mouse antibodies, PLUS and MINUS PLA probes
# [3] = target: Flag-Runx2 (RUNX family transcription factor 2) (UniProt Q08775); assay: co-IP; HEK 293 cells co-transfected with Flag-Runx2 and GFP-DTX3L plasmids for 24 h; enrichment for Flag or GFP on magnetic beads, lysate incubated overnight at 4°C, washed with TBS; western blot
binding [1],binding [2],binding [3],Substance
binds,–,–,DTX3L (deltex E3 ubiquitin ligase 3L) in NIH/3T3 cells (from UniProt Q3UIR3 1-748)
–,binds,binds,GFP-DTX3L (deltex E3 ubiquitin ligase 3L) (from UniProt Q3UIR3 1-748)
